The values that follow come from PubChem BioAssay AID256 (DTP/NCI, 2004).

The list does not hold the whole screen: it gathers tests that were run many times, whatever their T/C, doses with no T/C, and many T/C values between a quarter and a half above the control. Further doses and runs are listed elsewhere. T/C is the treated group as % of the vehicle group. Some doses have a count of surviving animals in place of a T/C: the source files T/C as zero there, which appears to mark a toxic dose or a test without result, not a measured value. Some doses without a T/C left all or most animals alive at the check, yet need not have been tolerated: survival well below the control is almost never listed, so the zero probably covers shortened survival too. Survivors were counted at the toxicity check, usually on the fifth day, unless a day is given; later deaths do not show. Schedule codes are those of the source, read here as Q, the interval in days (D) or hours (H), X, the number of doses. Some doses were run more than once; the values are given in rising order. Where survival is the endpoint, this PubChem deposit counts one and a half times the control or more as active, and values a quarter to a half above the control carry no call in these data; other NCI protocols may use other cut-offs. Some T/C values carry the count of animals alive at the toxicity check (mostly the fifth day); without a count, all were alive then. Signs of the kind (2×) say how often a value occurs here.

The test system of the assay is CD2F1 mice, L1210 leukemia ip, survival T/C. The assay can be described thus: NCI In Vivo Anticancer Drug Screen. Data for tumor model L1210 Leukemia (intraperitoneal) in CD2F1 (CDF1) mice. The following applies: higher T/C = longer survival. The procedure: The antitumor activity of compounds was measured in mice bearing transplantable tumors. Survival or tumor size were measured and the results are expressed as the measurement made in the treated group (T) divided by the measurement made in the vehicle treated control group (C). The tumor model used in this assay is L1210 Leukemia (intraperitoneal) in CD2F1 (CDF1) mice

Setting [1] is: T/C endpoint: mean survival time, dose: 100.0 mg/kg/injection, schedule: Q04DX003 (ip), vehicle: saline with Tween-80.
The mark [2] stands for this setting: T/C endpoint: mean survival time, dose: 400.0 mg/kg/injection, schedule: Q04DX003 (ip), vehicle: saline with Tween-80.
[3] abbreviates: T/C endpoint: mean survival time, dose: 200.0 mg/kg/injection, schedule: Q04DX003 (ip), vehicle: Klucel (hydroxypropylcellulose) (HPC).
[4] abbreviates: T/C endpoint: mean survival time, dose: 200.0 mg/kg/injection, schedule: Q04DX003 (ip), vehicle: saline with Tween-80.
The mark [5] stands for this setting: T/C endpoint: mean survival time, dose: 100.0 mg/kg/injection, schedule: Q04DX002 (ip), vehicle: saline with Tween-80.
Setting [6] is: T/C endpoint: mean survival time, dose: 400.0 mg/kg/injection, schedule: Q01DX009 (ip), vehicle: saline with Tween-80.
The mark [7] stands for this setting: T/C endpoint: mean survival time, dose: 400.0 mg/kg/injection, schedule: Q04DX002 (ip), vehicle: saline with Tween-80.
Setting [8] is: T/C endpoint: mean survival time, dose: 200.0 mg/kg/injection, schedule: Q04DX002 (ip), vehicle: saline with Tween-80.

In the case of `C[C@]12CC[C@H](O)C[C@@]1(O)CC[C@@H]1[C@@H]2CC[C@]2(C)[C@@H](c3ccc(=O)oc3)C[C@H]3O[C@]132`, the survivor count (T/C endpoint: mean survival time, dose: 20.0 mg/kg/injection, schedule: Q01DX009 (ip), vehicle: other) is 0 of 6. Consider `O=C1OCC/C1=C/c1cccc(O)c1`, for which the survivor count (T/C endpoint: mean survival time, dose: 12.5 mg/kg/injection, schedule: Q04DX002 (ip), vehicle: Klucel (hydroxypropylcellulose) (HPC)) is given as 3 of 3.

As to `O=C1C(Cl)=C(SCc2ccccc2)C(=O)c2ccccc21`, under setting [1], the survivor count was 2 of 6. `Brc1ccc2c(c1)C(Br)c1ccccc1-2` (stereo not given): the survivor count under setting [2] is reported as 5 of 6. For `S=c1nccc[nH]1.[Pd]`, the survivor count is given as 2 of 6 (T/C endpoint: mean survival time, dose: 100.0 mg/kg/injection, schedule: Q04DX003 (ip), vehicle: distilled water + Tween-80) and 0 of 6 (T/C endpoint: mean survival time, dose: 200.0 mg/kg/injection, schedule: Q04DX003 (ip), vehicle: distilled water + Tween-80). In the case of `CN(C)c1ccc(N=O)cc1`, the survivor count runs as follows: (T/C endpoint: median survival time, dose: 12.5 mg/kg/injection, schedule: Q04DX002 (ip), vehicle: saline with Tween-80) 3 of 3; (T/C endpoint: median survival time, dose: 25.0 mg/kg/injection, schedule: Q04DX002 (ip), vehicle: saline with Tween-80) 2 of 3; (T/C endpoint: median survival time, dose: 50.0 mg/kg/injection, schedule: Q04DX002 (ip), vehicle: saline with Tween-80) 0 of 3; (T/C endpoint: median survival time, dose: 100.0 mg/kg/injection, schedule: Q04DX002 (ip), vehicle: saline with Tween-80) 0 of 3.

As for `CN(Cc1ccc(C(=O)NC(CCC(=O)O)C(=O)O)cc1)Cc1cnc2nc(N)nc(N)c2n1` (stereo not given), the T/C (T/C endpoint: mean survival time, dose: 25.0 mg/kg/injection, schedule: Q01DX009 (ip), vehicle: water) was 127 % of control; the T/C (T/C endpoint: mean survival time, dose: 33.0 mg/kg/injection, schedule: Q01DX009 (ip), vehicle: water) is 125 % of control; the T/C (T/C endpoint: mean survival time, dose: 50.0 mg/kg/injection, schedule: Q01DX009 (ip), vehicle: water) is 125 and 136 % of control; the T/C (T/C endpoint: mean survival time, dose: 75.0 mg/kg/injection, schedule: Q01DX009 (ip), vehicle: water) was 130 % of control; the T/C (T/C endpoint: mean survival time, dose: 112.0 mg/kg/injection, schedule: Q01DX009 (ip), vehicle: water) is 127 % of control.

As to `CC1=NC(C#N)=C(C#N)N=C(C)C1`, the survivor count reads like this: (T/C endpoint: mean survival time, dose: 100.0 mg/kg/injection, schedule: Q04DX003 (ip), vehicle: Klucel (hydroxypropylcellulose) (HPC)) 0 of 6; under setting [3], 0 of 6; (T/C endpoint: mean survival time, dose: 400.0 mg/kg/injection, schedule: Q04DX003 (ip), vehicle: Klucel (hydroxypropylcellulose) (HPC)) 0 of 6. With `C=CCC#N`, the survivor count is listed as 0 of 6 (T/C endpoint: mean survival time, dose: 200.0 mg/kg/injection, schedule: Q04DX003 (ip), vehicle: saline sonified) and 0 of 6 (T/C endpoint: mean survival time, dose: 400.0 mg/kg/injection, schedule: Q04DX003 (ip), vehicle: saline sonified). Consider `Cc1nn(CCO)c(C)c1N=[N+]([O-])c1c(C)nn(CCO)c1C`, for which the survivor count is reported as 4 of 6 (T/C endpoint: mean survival time, dose: 100.0 mg/kg/injection, schedule: Q01DX009 (ip), vehicle: saline with Tween-80) and 0 of 3 under setting [3]. With `CC(=O)SCCC(=O)O`, the survivor count (T/C endpoint: mean survival time, dose: 100.0 mg/kg/injection, schedule: Q04DX003 (ip), vehicle: saline) is recorded as 0 of 6. With `CCC1CCCCN1C` (stereo not given), the survivor count by setting is: under setting [4], 0 of 6; under setting [2], 0 of 6. Regarding `COc1cc(Cl)ccc1NC(=O)Nc1ccccc1C`, the survivor count under setting [5] was 3 of 3. Regarding `CN1CCN(CCSSCCN2CCN(C)CC2)CC1`, under setting [2], the survivor count is given as 3 of 6.

In the case of `CN1CC(NC(=O)N(CCCl)N=O)CC2c3cccc4c3c(cn4N=O)CC21` (stereo not given), the T/C (T/C endpoint: mean survival time, dose: 100.0 mg/kg/injection, schedule: Q01DX001 (ip), vehicle: other) is 144 % of control. Take `COC(=O)c1ccccc1NCCNc1ccccc1C(=O)OC`: the survivor count under setting [5] is recorded as 3 of 3. Regarding `CCCCNC(=O)C1CC2c3c(Br)ccc4c3C(CC2N(C)C1)CN4C(C)=O` (stereo not given), the survivor count under setting [1] is 6 of 6.

Regarding `Cc1cn(C2CC(O)C(COC(c3ccccc3)(c3ccccc3)c3ccc(OCC(=O)O)cc3)O2)c(=O)[nH]c1=O` (stereo not given), for the setting “T/C endpoint: mean survival time, dose: 400.0 mg/kg/injection, schedule: Q01DX005 (ip), vehicle: distilled water + Tween-80”, the survivor count is on record as 0 of 6. With `O=C(CC(O)(C(F)(F)F)C(F)(F)F)C(=O)c1ccc([N+](=O)[O-])cc1`, the survivor count under setting [6] is on record as 2 of 6. `NC1=C(Cl)C(=O)C(N)=C(Cl)C1=O`: the survivor count under setting [2] is given as 0 of 3. Turning to `N#Cc1cn(C2OC(CO)C(O)C2O)c2ncnc(N)c12` (stereo not given), the T/C (T/C endpoint: mean survival time, dose: 0.25 mg/kg/injection, schedule: Q01DX009 (ip), vehicle: saline) was 134 % of control. Also, the survivor count (T/C endpoint: mean survival time, dose: 2.0 mg/kg/injection, schedule: Q01DX009 (ip), vehicle: saline) is 6 of 6. As for `CC1(C)CC23C4COC(=O)C2CCC1C3CC4=O` (stereo not given), the survivor count is, setting by setting: (T/C endpoint: mean survival time, dose: 50.0 mg/kg/injection, schedule: Q01DX009 (ip), vehicle: DMSO) 3 of 6; (T/C endpoint: mean survival time, dose: 100.0 mg/kg/injection, schedule: Q01DX009 (ip), vehicle: DMSO) 1 of 6.

As to `CCC[CH2][Sn]([CH2]CCC)([n]1cncn1)[n]1cncn1`, the survivor count is 0 of 6 (T/C endpoint: mean survival time, dose: 25.0 mg/kg/injection, schedule: Q04DX003 (ip), vehicle: saline with Tween-80) and 0 of 6 (T/C endpoint: mean survival time, dose: 50.0 mg/kg/injection, schedule: Q04DX003 (ip), vehicle: saline with Tween-80). On to `CCNC(=O)c1ccccc1N=NN(C)C`, for which the T/C runs as follows: (T/C endpoint: mean survival time, dose: 37.5 mg/kg/injection, schedule: Q01DX009 (ip), vehicle: Klucel (hydroxypropylcellulose) (HPC)) 97, 106, 112, 113 % of control; (T/C endpoint: mean survival time, dose: 75.0 mg/kg/injection, schedule: Q01DX009 (ip), vehicle: Klucel (hydroxypropylcellulose) (HPC)) 105 (2×), 124, 134 % of control [5 of 6 alive]; (T/C endpoint: mean survival time, dose: 150.0 mg/kg/injection, schedule: Q01DX009 (ip), vehicle: Klucel (hydroxypropylcellulose) (HPC)) 104, 117, 130, 137 % of control. Further, for the setting “T/C endpoint: mean survival time, dose: 300.0 mg/kg/injection, schedule: Q01DX009 (ip), vehicle: Klucel (hydroxypropylcellulose) (HPC)”, the survivor count is recorded as 2 of 6, 3 of 6, 4 of 6. On to `CCOC(=O)c1ccc(NC(=O)Nc2ccc(Nc3ccccc3)cc2)cc1`, for which the survivor count is listed as 6 of 6 under setting [1], 6 of 6 under setting [4], 6 of 6 under setting [7] and 6 of 6 under setting [2]. With `COc1ccc(-c2nc(N)c3ncn(C4OC(CO)C(O)C4O)c3n2)cc1` (stereo not given), the survivor count (T/C endpoint: mean survival time, dose: 100.0 mg/kg/injection, schedule: Q01DX005 (ip), vehicle: distilled water + Tween-80) is on record as 6 of 6. In the case of `Nc1ccc(S(=O)(=O)F)c(Cl)c1`, the survivor count under setting [6] is on record as 2 of 6. `CCCCCCCCCCCC(=O)[O][Pb]([CH2]C)([CH2]C)[CH2]C`: where the note is “T/C endpoint: mean survival time, dose: 12.5 mg/kg/injection, schedule: Q01DX009 (ip), vehicle: saline with Tween-80”, the survivor count is reported as 1 of 6.

With `CCCOC(=O)c1cncn1C(C)c1ccccc1` (stereo not given), the survivor count was 3 of 6 (T/C endpoint: mean survival time, dose: 200.0 mg/kg/injection, schedule: Q01DX001 (ip), vehicle: saline) and 0 of 6 (T/C endpoint: mean survival time, dose: 400.0 mg/kg/injection, schedule: Q01DX001 (ip), vehicle: saline). As to `COC1OC(CO)C(OC(=O)Nc2ccccc2)C(OC(=O)Nc2ccccc2)C1O` (stereo not given), the survivor count (T/C endpoint: mean survival time, dose: 200.0 mg/kg/injection, schedule: Q01DX001 (ip), vehicle: saline with Tween-80) is 6 of 6. Take `COc1ccc(C(=O)NN)cc1`: the survivor count is on record as 3 of 6 under setting [4] and 4 of 6 under setting [2]. As to `CCCCCC(C)(C)N=[P+]([O-])NC(C)(C)CCCCC` (stereo not given), the survivor count under setting [8] is listed as 0 of 3 and the survivor count under setting [7] is on record as 0 of 3. On to `Cn1c(=O)[nH]c2nncnc2c1=O`, for which the survivor count (T/C endpoint: mean survival time, dose: 64.0 mg/kg/injection, schedule: Q01DX009 (ip), vehicle: water) is given as 3 of 6. Consider `COc1ccccc1NC(=O)Oc1ccc(C2CCCCC2)cc1`, for which the survivor count was 3 of 3 under setting [8] and 3 of 3 under setting [7].
